# Literature values as cited in US20110021560A1, “Compositions And Methods For Regulating Chondrocyte Proliferation In Bone Disorders” (University of Massachusetts Medical School, priority 2009, published 2011).
# At least one structure is not confirmed: it was looked up by name or label, or the drawing left a doubt.
# System: human MSCs
# Conditions: human MSCs cultured in the presence of the compound (Akino et al., 2006); cited from earlier work
structure (smiles),measurement,value
O=C(Nc1cccc2c(=O)cc(-c3nnn[nH]3)oc12)c1ccc(OCCCCc2ccccc2)cc1 [pranlukast],cellular differentiation of MSCs based on morphology,enhanced
